In PubChem BioAssay AID2685 (National Center for Advancing Translational Sciences (NCATS), 2010):
Some of the results follow. Further columns of the screen follow, without active or inactive calls. Compounds called inactive in the main read-out are mostly missing here. The note in brackets gives the kind of curve behind each potency; many fits are weak.

Assay: qHTS Assay for Lipid Storage Modulators in Drosophila S3 Cells;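 on cell number change: cells counted by Cell Tracker Red CMTPX staining in the red channel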
Details: BODIPY lipid droplet fluorescence, 18-24 h; for cell number change: measured here: cell count max response, cells fed with added oleic acid
Method in brief: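 Drosophila S3 cells loaded with oleic acid (400 uM, as added) and compounds at several concentrations; lipid droplets imaged by 488-nm laser-scanning cytometry, 500–530 nm intensity and object ratio to cell channel. Percent activity normalized to 20 uM Triacsin C.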

[1] = measured here: lipid fluorescence (Fed channel) AC50, cells fed with added oleic acid
[2] = measured here: cell number channel AC50, cells fed with added oleic acid

SMILES	cell number change [%]	AC50 [1]	AC50 [2]
O=C(O)CSc1cc(C(=O)c2ccccc2O)cn2c(=O)c3c(-c4ccccc4)csc3nc12	9.61	–	–
COc1ccc(OC)c(-c2csc(NC(=O)c3ccc4c(c3)OCO4)n2)c1	8.95	–	–
N#Cc1ccc(/C=C2\CCn3c2nc2cc(C(=O)O)ccc2c3=O)cc1	11.8	0.447 µM [falling, full curve, poor fit]	–
CCCn1c(C)cc(C(=O)COc2ncnc3sccc23)c1C	–	8.2 µM [rising, partial curve]	–
CCc1nn2c(=O)cc(N3CCN(c4cc(C)nc5ccccc45)CC3)nc2s1	-6.53	6.51 µM [rising, single point]	–
CCc1ccccc1Nc1ncnc2ccccc12	6.31	–	–
CC(Sc1nc2ccccc2c(=O)n1C)C(=O)NC1CCCCC1C (stereo not drawn)	-86.5	–	29.1 µM [falling, single point]
O=C(NCc1ccco1)c1ccc(Cl)c(S(=O)(=O)N2CCCC2)c1	-26.3	0.58 µM [falling, full curve]	–
CC1Cc2ccccc2N1C(=S)NC1CCCC1 (stereo not drawn)	13.5	–	–
NC(=O)COC(=O)CC12CC3CC(CC(Br)(C3)C1)C2	25.5	0.355 µM [rising, full curve, poor fit]	–
CC(=O)Nc1ccc(S(=O)(=O)NCC2CCC(C(=O)NC3CCCCCC3)CC2)cc1 (stereo not drawn)	-28	2.59 µM [falling, full curve, poor fit]	1.46 µM [falling, full curve, poor fit]
Cc1cc(NC(=O)CSc2nc(=O)n(CCCN(C)C)c3c2CCCC3)no1	–	6.51 µM [rising, partial curve, poor fit]	–
NC(=O)c1cc(Br)cc(C2CCCCC2)c1O	-61.3	20.6 µM [falling, single point]	18.4 µM [falling, partial curve]
Cc1cnc(CNC(=O)CC2C(=O)NCCN2Cc2ccccc2C(F)(F)F)cn1 (stereo not drawn)	16.1	0.651 µM [rising, partial curve]	–
Cc1cc(C)c(S(=O)(=O)N2CCN(C(=O)c3cc4ccccc4o3)CC2)c(C)c1	25	–	–
COC(=O)C1C(=O)N2CCCSC2=C(C#N)C1c1cccs1 (stereo not drawn)	–	0.461 µM [rising, partial curve, poor fit]	–
O=C(Cc1ccc(Cl)cc1)N/N=C/c1ccncc1	-35.7	29.1 µM [falling, single point]	29.1 µM [falling, single point]
O=C(Nc1ccc(Br)cc1)c1cccn1-c1ncc(C(F)(F)F)cc1Cl	12.4	0.651 µM [falling, full curve]	–
Cc1ccc(N(CC(=O)NC2CCCCC2)C(=O)CNC(=O)c2ccco2)cc1C	-20	29.1 µM [falling, single point]	–
O=C(N1CCOCC1)N1CCN(S(=O)(=O)N2CCCCC2)CC1	-17.5	–	0.00731 µM [falling, full curve, poor fit]

Of the compounds above, 2 have two or more sulfur atoms.
SMILES	cell number change [%]	AC50 [1]	AC50 [2]
O=C(O)CSc1cc(C(=O)c2ccccc2O)cn2c(=O)c3c(-c4ccccc4)csc3nc12	9.61	–	–
COC(=O)C1C(=O)N2CCCSC2=C(C#N)C1c1cccs1 (stereo not drawn)	–	0.461 µM [rising, partial curve, poor fit]	–

Remaining list, next part.

SMILES	cell number change [%]	AC50 [1]	AC50 [2]
CCCCc1nnc(NC(=O)C23CC4CC(CC(NC(C)=O)(C4)C2)C3)s1	8.21	–	2.59 µM [rising, partial curve, poor fit]
COc1ccc(-c2nc(CN3CCC(C(=O)NC4CC4)CC3)c(C)o2)cc1OC	7.95	3.26 µM [rising, full curve]	–
COc1ccc(C(=O)N/N=C(\C)Cn2nc([N+](=O)[O-])cc2C)cc1	21.5	2.06 µM [rising, partial curve]	–
Cc1cc(C)nc(SCc2nnc(SCc3ccc([N+](=O)[O-])cc3)n2Cc2ccco2)n1	18.5	3.26 µM [rising, full curve]	1.3 µM [falling, full curve]
COc1ccc(C(CC(=O)NCc2ccco2)c2ccc(F)cc2)cc1 (stereo not drawn)	-5.22	0.731 µM [rising, single point]	–
COc1ccc(/C=N/Nc2ncnc3sc4c(c23)CCCC4)cc1O	-9.51	7.31 µM [rising, partial curve, poor fit]	6.51 µM [rising, single point]
O=C(COc1ccc(-n2cnnn2)cc1)NC1CCCCC1	2.26	–	–
Cc1ccccc1OCCCCN1CCCCC1	32.6	0.58 µM [falling, single point]	–
CN(C)Cc1nc2ccccc2c(=O)n1Cc1nc(-c2cccc([N+](=O)[O-])c2)cs1	12.4	0.0082 µM [rising, full curve, poor fit]	0.00461 µM [rising, full curve, poor fit]
O=C(Cn1cnc2ccccc2c1=O)Nc1cccc(-c2nnc3n2CCCCC3)c1	–	6.51 µM [rising, partial curve, poor fit]	–
CCOC(=O)c1c(C)[nH]c(C(=O)CSc2nnc(CC(C)c3ccccc3)o2)c1C (stereo not drawn)	0.856	0.0231 µM [rising, full curve]	–
CCC(C)c1ccccc1N1CC(C(=O)Nc2ccc(C)c(S(=O)(=O)N3CCOCC3)c2)CC1=O (stereo not drawn)	9.16	14.6 µM [rising, single point]	–
CCCc1c(C)c2c(C)[nH]nc2oc1=O	23.2	9.2 µM [rising, partial curve, poor fit]	–
C=CCc1cc(OC)ccc1OCCN1CC(C)OC(C)C1 (stereo not drawn)	9.09	1.64 µM [rising, partial curve]	–
O=C(Cc1nc2ccccc2[nH]1)c1cccc([N+](=O)[O-])c1	-8.14	16.4 µM [falling, single point]	–
CC(C)CN(C(=O)CN1CCN(c2ccccc2O)CC1)c1c(N)n(CC(C)C)c(=O)[nH]c1=O	-0.326	9.2 µM [falling, partial curve, poor fit]	–
COc1ccccc1C(=O)NCCn1cc(SCC(=O)Nc2nnc(C)s2)c2ccccc21	3.57	5.8 µM [rising, partial curve]	–
CCC(C)(C)n1nnnc1C(c1ccc(OC)c(OC)c1)N1CCN(C(=O)c2ccco2)CC1 (stereo not drawn)	1.67	29.1 µM [rising, partial curve]	–
CC1(c2ccccc2)NC(=O)N(CC(=O)NCC2CCCO2)C1=O (stereo not drawn)	-28.3	29.1 µM [falling, single point]	0.461 µM [rising, single point]
N#Cc1ccccc1S(=O)(=O)N1CCN(C(=O)CN2CCCC2c2cccs2)CC1 (stereo not drawn)	-0.743	–	–

SMILES	cell number change [%]	AC50 [1]	AC50 [2]
COc1ccc(NC(=O)CSc2nnnn2C2CCCCC2)c(OC)c1	6.41	–	0.146 µM [rising, full curve, poor fit]
Cc1ccc(C(=O)N(CN2CCCC2=O)c2ccc(F)cc2)cc1	25.6	6.51 µM [rising, single point]	0.259 µM [rising, full curve, poor fit]
CCOC(=O)C1CCN(C(=O)c2sc3nc(-c4ccc(F)cc4)cn3c2C)CC1	5.35	13 µM [rising, single point]	–
COCCNC(=O)c1ccc2c(=O)n(CCOC)c(=O)[nH]c2c1	-51.1	29.1 µM [falling, partial curve, poor fit]	25.9 µM [falling, partial curve, poor fit]
Cc1cccc(OCCn2nnc3ccccc32)c1C	-18.5	2.06 µM [rising, single point]	–
COC(=O)c1c(NC(NC(=O)c2ccccc2)(C(F)(F)F)C(F)(F)F)sc2c1CCN(C)C2	–	0.058 µM [falling, full curve]	–
Cc1ccc(CN2CC(C(=O)NCC(=O)Nc3c(C)cccc3C)CC2=O)cc1 (stereo not drawn)	–	–	6.51 µM [rising, single point]
CCN(CC)Cc1cc(C(C)=O)ccc1O	-37.9	0.82 µM [falling, full curve]	4.61 µM [falling, full curve]
Cc1cc(=O)n2nc(N3CCCC3C(=O)Nc3ccccc3C)sc2n1 (stereo not drawn)	11.5	–	–
O=C(CSc1nnnn1-c1ccc(O)cc1)N1N=C(c2ccc3ccccc3c2)CC1c1ccccc1 (stereo not drawn)	9.87	25.9 µM [rising, partial curve]	–
CCn1c(SCCN2CCOCC2)nc2c1c(=O)n(C)c(=O)n2C	5.47	0.58 µM [rising, single point]	3.26 µM [rising, partial curve, poor fit]
CCOC(=O)N1N=C(C)CC1(O)c1ccc(Cl)cc1 (stereo not drawn)	-0.911	0.092 µM [falling, full curve, poor fit]	–
C=CCOc1ccc(C2C(C(=O)c3ccco3)=C(O)C(=O)N2Cc2cccnc2)cc1 (stereo not drawn)	22	–	–
Cc1cc(S(=O)(=O)N2CCN(c3ccc(F)cc3)CC2)c(C)s1	-43	0.13 µM [falling, full curve, poor fit]	18.4 µM [falling, single point]
O=C(Nc1cccc2c1CCCC2)c1cc([N+](=O)[O-])ccc1Cl	-15.1	–	–
CCOC(CNC(=O)C(=O)NCC(c1ccco1)N1CCN(c2ccc(OC)cc2)CC1)OCC (stereo not drawn)	22.3	–	–
CC(C)(C)N(Cc1ccccc1)C(=O)COC(=O)CNC(=O)c1ccco1	27.6	–	–
CCOc1cc(C2NC(=O)NC(C)=C2C(=O)NCc2ccccc2)c(Cl)cc1O (stereo not drawn)	-38.5	3.66 µM [falling, full curve]	0.461 µM [falling, partial curve, poor fit]
CC(=O)COc1ccc2cc(-c3ccccc3)c(=O)oc2c1	-5.26	5.8 µM [falling, single point]	–
